{"source": "the supplement of paper PMC8728848", "binders": {"B1": {"name": "PP2A1 (Arabidopsis thaliana) (protein)", "chain": "MFRNQDSKYLIPVQKEAPPVTTLPMKASTVKSPHNCEAILRDADPPISLSSVNLSEQLRSGVFLKPKKQIKYWVDERNSNCFMLFAKNLSITWSDDVNYWTWFTEKESPNENVEAVGLKNVCWLDITGKFDTRNLTPGIVYEVVFKVKLEDPAYGWDTPVNLKLVLPNGKEKPQEKKVSLRELPRYKWVDVRVGEFVPEKSAAGEITFSMYEHAAGVWKKGLSLKGVAIRPKQHHHHHH"}}, "test_in_all_cases": "glycan array binding signal (z-score within array); higher = stronger binding", "details_in_all_cases": "glycan notation: IUPAC condensed, linker removed", "key": {"[1]": {"biological_target": "GlcNAc(a1-4)Gal(b1-4)GlcNAc(b1-3)Gal(b1-4)GlcNAc(b1-3)Gal(b1-4)GlcNAc", "procedure,_shortened": "(§1)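 Glycan array binding is given as a within-array Z-score, which can be read as non-binding when negative. The arrays, 3228 of them, came from the Consortium for Functional Glycomics database and were retained only where the protein sequence was available. Z-scores were averaged across arrays of the same protein sequence at different concentrations or buffers and across linkers.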"}, "[2]": {"biological_target": "GlcNAc(a1-4)Gal(b1-4)GlcNAc(b1-3)Gal(b1-4)[Fuc(a1-3)]GlcNAc(b1-3)Gal(b1-4)[Fuc(a1-3)]GlcNAc", "procedure,_shortened": "as §1"}, "[3]": {"biological_target": "GlcNAc(a1-6)Gal(b1-4)GlcNAc", "procedure,_shortened": "as §1"}, "[4]": {"biological_target": "GlcNAc(b1-2)Gal(b1-3)GalNAc", "procedure,_shortened": "as §1"}, "[5]": {"biological_target": "GlcNAc(b1-2)Man(a1-3)[GlcNAc(b1-2)Man(a1-6)]Man(b1-4)GlcNAc(b1-4)GlcNAc", "procedure,_shortened": "as §1"}, "[6]": {"biological_target": "GlcNAc(b1-2)Man(a1-3)[GlcNAc(b1-2)Man(a1-6)]Man(b1-4)GlcNAc(b1-4)[Fuc(a1-6)]GlcNAc", "procedure,_shortened": "as §1"}, "GlcNAc(b1-3)Gal": {"biological_target": "GlcNAc(b1-3)Gal", "procedure,_shortened": "as §1"}, "[7]": {"biological_target": "GlcNAc(b1-3)Gal(b1-3)GalNAc", "procedure,_shortened": "as §1"}, "GlcNAc(b1-3)Gal(b1-4)Glc": {"biological_target": "GlcNAc(b1-3)Gal(b1-4)Glc", "procedure,_shortened": "as §1"}, "[8]": {"biological_target": "GlcNAc(b1-3)Gal(b1-4)GlcNAc", "procedure,_shortened": "as §1"}, "[9]": {"biological_target": "GlcNAc(b1-3)Gal(b1-4)GlcNAc(b1-3)Gal(b1-4)GlcNAc", "procedure,_shortened": "as §1"}, "GlcNAc(b1-3)GalNAc": {"biological_target": "GlcNAc(b1-3)GalNAc", "procedure,_shortened": "as §1"}, "GlcNAc(b1-3)Man": {"biological_target": "GlcNAc(b1-3)Man", "procedure,_shortened": "as §1"}, "[10]": {"biological_target": "GlcNAc(b1-3)[GlcNAc(b1-4)][GlcNAc(b1-6)]GlcNAc", "procedure,_shortened": "as §1"}, "[11]": {"biological_target": "GlcNAc(b1-3)[GlcNAc(b1-6)]Gal(b1-4)GlcNAc", "procedure,_shortened": "as §1"}, "[12]": {"biological_target": "GlcNAc(b1-3)[GlcNAc(b1-6)]GalNAc", "procedure,_shortened": "as §1"}, "[13]": {"biological_target": "GlcNAc(b1-4)Gal(b1-4)GlcNAc", "procedure,_shortened": "as §1"}, "GlcNAc(b1-4)GlcNAc": {"biological_target": "GlcNAc(b1-4)GlcNAc", "procedure,_shortened": "as §1"}, "[14]": {"biological_target": "GlcNAc(b1-4)GlcNAc(b1-4)GlcNAc", "procedure,_shortened": "as §1"}, "[15]": {"biological_target": "GlcNAc(b1-4)GlcNAc(b1-4)GlcNAc(b1-4)GlcNAc(b1-4)GlcNAc", "procedure,_shortened": "as §1"}, "[16]": {"biological_target": "GlcNAc(b1-4)GlcNAc(b1-4)GlcNAc(b1-4)GlcNAc(b1-4)GlcNAc(b1-4)GlcNAc", "procedure,_shortened": "as §1"}, "[17]": {"biological_target": "GlcNAc(b1-4)[GlcNAc(b1-6)]GalNAc", "procedure,_shortened": "as §1"}, "[18]": {"biological_target": "GlcNAc(b1-6)Gal(b1-4)GlcNAc", "procedure,_shortened": "as §1"}, "GlcNAc(b1-6)GalNAc": {"biological_target": "GlcNAc(b1-6)GalNAc", "procedure,_shortened": "as §1"}, "GlcNAc3Prop(b1-4)GlcNAc": {"biological_target": "GlcNAc3Prop(b1-4)GlcNAc", "procedure,_shortened": "as §1"}, "[19]": {"biological_target": "GlcNAc6S(b1-3)Gal(b1-4)GlcNAc", "procedure,_shortened": "as §1"}, "Kdn(a2-3)Gal(b1-3)GalNAc": {"biological_target": "Kdn(a2-3)Gal(b1-3)GalNAc", "procedure,_shortened": "as §1"}, "Kdn(a2-3)Gal(b1-3)GlcNAc": {"biological_target": "Kdn(a2-3)Gal(b1-3)GlcNAc", "procedure,_shortened": "as §1"}, "Kdn(a2-3)Gal(b1-4)Glc": {"biological_target": "Kdn(a2-3)Gal(b1-4)Glc", "procedure,_shortened": "as §1"}, "Kdn(a2-3)Gal(b1-4)GlcNAc": {"biological_target": "Kdn(a2-3)Gal(b1-4)GlcNAc", "procedure,_shortened": "as §1"}, "[20]": {"biological_target": "Kdn(a2-3)Gal(b1-4)[Fuc(a1-3)]GlcNAc", "procedure,_shortened": "as §1"}, "Kdn(a2-6)Gal(b1-4)GlcNAc": {"biological_target": "Kdn(a2-6)Gal(b1-4)GlcNAc", "procedure,_shortened": "as §1"}, "[21]": {"biological_target": "Man(a1-2)Man(a1-2)Man(a1-3)Man", "procedure,_shortened": "as §1"}, "[22]": {"biological_target": "Man(a1-2)Man(a1-2)Man(a1-6)[Man(a1-3)]Man", "procedure,_shortened": "as §1"}, "Man(a1-2)Man(a1-3)Man": {"biological_target": "Man(a1-2)Man(a1-3)Man", "procedure,_shortened": "as §1"}, "[23]": {"biological_target": "Man(a1-2)Man(a1-3)[Man(a1-2)Man(a1-6)]Man", "procedure,_shortened": "as §1"}, "[24]": {"biological_target": "Man(a1-2)Man(a1-3)[Man(a1-2)Man(a1-6)]Man(a1-6)[Man(a1-2)Man(a1-2)Man(a1-3)]Man", "procedure,_shortened": "as §1"}, "[25]": {"biological_target": "Man(a1-2)Man(a1-3)[Man(a1-2)Man(a1-6)]Man(a1-6)[Man(a1-2)Man(a1-2)Man(a1-3)]Man(b1-4)GlcNAc(b1-4)GlcNAc", "procedure,_shortened": "as §1"}, "[26]": {"biological_target": "Man(a1-2)Man(a1-3)[Man(a1-6)]Man(a1-6)[Man(a1-2)Man(a1-3)]Man(b1-4)GlcNAc(b1-4)GlcNAc", "procedure,_shortened": "as §1"}, "[27]": {"biological_target": "Man(a1-2)Man(a1-6)[Man(a1-3)]Man(a1-6)[Man(a1-2)Man(a1-2)Man(a1-3)]Man", "procedure,_shortened": "as §1"}, "[28]": {"biological_target": "Man(a1-2)Man(a1-6)[Man(a1-3)]Man(a1-6)[Man(a1-2)Man(a1-2)Man(a1-3)]Man(b1-4)GlcNAc(b1-4)GlcNAc", "procedure,_shortened": "as §1"}, "Man(a1-3)[Man(a1-6)]Man": {"biological_target": "Man(a1-3)[Man(a1-6)]Man", "procedure,_shortened": "as §1"}, "[29]": {"biological_target": "Man(a1-3)[Man(a1-6)]Man(a1-6)[Man(a1-2)Man(a1-3)]Man(b1-4)GlcNAc(b1-4)GlcNAc", "procedure,_shortened": "as §1"}, "[30]": {"biological_target": "Man(a1-3)[Man(a1-6)]Man(a1-6)[Man(a1-3)]Man", "procedure,_shortened": "as §1"}}, "note": "The list shows a part of the results."}
{"binder": "B1", "values": [{"measurement": "glycan array binding signal (z-score)", "setting": "[1]", "result": -0.439}, {"measurement": "glycan array binding signal (z-score)", "setting": "[2]", "result": 2.05}, {"measurement": "glycan array binding signal (z-score)", "setting": "[3]", "result": -0.489}, {"measurement": "glycan array binding signal (z-score)", "setting": "[4]", "result": -0.576}, {"measurement": "glycan array binding signal (z-score)", "setting": "[5]", "result": 0.779}, {"measurement": "glycan array binding signal (z-score)", "setting": "[6]", "result": 1.08}, {"measurement": "glycan array binding signal (z-score)", "setting": "GlcNAc(b1-3)Gal", "result": -0.504}, {"measurement": "glycan array binding signal (z-score)", "setting": "[7]", "result": -0.583}, {"measurement": "glycan array binding signal (z-score)", "setting": "GlcNAc(b1-3)Gal(b1-4)Glc", "result": -0.424}, {"measurement": "glycan array binding signal (z-score)", "setting": "[8]", "result": -0.321}, {"measurement": "glycan array binding signal (z-score)", "setting": "[9]", "result": -0.708}, {"measurement": "glycan array binding signal (z-score)", "setting": "GlcNAc(b1-3)GalNAc", "result": -0.555}, {"measurement": "glycan array binding signal (z-score)", "setting": "GlcNAc(b1-3)Man", "result": -0.596}, {"measurement": "glycan array binding signal (z-score)", "setting": "[10]", "result": -0.303}, {"measurement": "glycan array binding signal (z-score)", "setting": "[11]", "result": -0.643}, {"measurement": "glycan array binding signal (z-score)", "setting": "[12]", "result": -0.419}, {"measurement": "glycan array binding signal (z-score)", "setting": "[13]", "result": -0.64}, {"measurement": "glycan array binding signal (z-score)", "setting": "GlcNAc(b1-4)GlcNAc", "result": -0.6}, {"measurement": "glycan array binding signal (z-score)", "setting": "[14]", "result": 2.52}, {"measurement": "glycan array binding signal (z-score)", "setting": "[15]", "result": 1.81}, {"measurement": "glycan array binding signal (z-score)", "setting": "[16]", "result": 0.665}, {"measurement": "glycan array binding signal (z-score)", "setting": "[17]", "result": -0.751}, {"measurement": "glycan array binding signal (z-score)", "setting": "[18]", "result": -0.455}, {"measurement": "glycan array binding signal (z-score)", "setting": "GlcNAc(b1-6)GalNAc", "result": -0.655}, {"measurement": "glycan array binding signal (z-score)", "setting": "GlcNAc3Prop(b1-4)GlcNAc", "result": -0.608}, {"measurement": "glycan array binding signal (z-score)", "setting": "[19]", "result": -0.237}, {"measurement": "glycan array binding signal (z-score)", "setting": "Kdn(a2-3)Gal(b1-3)GalNAc", "result": -0.162}, {"measurement": "glycan array binding signal (z-score)", "setting": "Kdn(a2-3)Gal(b1-3)GlcNAc", "result": -0.243}, {"measurement": "glycan array binding signal (z-score)", "setting": "Kdn(a2-3)Gal(b1-4)Glc", "result": -0.46}, {"measurement": "glycan array binding signal (z-score)", "setting": "Kdn(a2-3)Gal(b1-4)GlcNAc", "result": 0.076}, {"measurement": "glycan array binding signal (z-score)", "setting": "[20]", "result": -0.169}, {"measurement": "glycan array binding signal (z-score)", "setting": "Kdn(a2-6)Gal(b1-4)GlcNAc", "result": -0.455}, {"measurement": "glycan array binding signal (z-score)", "setting": "[21]", "result": -0.323}, {"measurement": "glycan array binding signal (z-score)", "setting": "[22]", "result": 0.03}, {"measurement": "glycan array binding signal (z-score)", "setting": "Man(a1-2)Man(a1-3)Man", "result": -0.345}, {"measurement": "glycan array binding signal (z-score)", "setting": "[23]", "result": 0.174}, {"measurement": "glycan array binding signal (z-score)", "setting": "[24]", "result": -0.318}, {"measurement": "glycan array binding signal (z-score)", "setting": "[25]", "result": 1.07}, {"measurement": "glycan array binding signal (z-score)", "setting": "[26]", "result": 3.07}, {"measurement": "glycan array binding signal (z-score)", "setting": "[27]", "result": -0.305}, {"measurement": "glycan array binding signal (z-score)", "setting": "[28]", "result": 2.69}, {"measurement": "glycan array binding signal (z-score)", "setting": "Man(a1-3)[Man(a1-6)]Man", "result": -0.025}, {"measurement": "glycan array binding signal (z-score)", "setting": "[29]", "result": 2.97}, {"measurement": "glycan array binding signal (z-score)", "setting": "[30]", "result": -0.509}]}
